Laboratory results taken from PubChem BioAssay AID2685 (National Center for Advancing Translational Sciences (NCATS), 2010).
The other results are listed elsewhere or left out. Further columns of the screen follow, without active or inactive calls. The list favours compounds with an active or inconclusive main result. Potencies come from curve fits of mixed quality, noted in brackets.

Assay: qHTS Assay for Lipid Storage Modulators in Drosophila S3 Cells;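 as to cell number change: cells counted by Cell Tracker Red CMTPX staining in the red channel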
Conditions: BODIPY lipid droplet fluorescence, 18-24 h; for cell number change: measured here: cell count max response, cells fed with added oleic acid
In short: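 Drosophila S3 cells got compounds at several concentrations plus oleic acid (400 uM solution). Laser-scanning cytometry with 488 nm excitation read lipid droplets at 500-530 nm and cells at 575-640 nm. Percent activity was relative to 20 uM Triacsin C.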

[1] = measured here: lipid fluorescence (Fed channel) AC50, cells fed with added oleic acid
[2] = measured here: cell number channel AC50, cells fed with added oleic acid

## CN(C)S(=O)(=O)c1ccc(Cl)c(NC(=O)CN2CCNC(=O)C2)c1
  cell number change: -15.6%

## CCOC(=O)C1=C(C)NC(SCc2cc(=O)[nH][nH]2)=C(C#N)C1c1cccs1 (configuration not stated)
  cell number change: 7.78%
[1]
  AC50: 0.651 µM [falling, single point]

## CCOc1ccc(N=CNc2ccc(OCC)cc2)cc1
  cell number change: 1.42%
[1]
  AC50: 6.51 µM [rising, single point]

## NCCCCCc1nnc(SCC(N)=O)o1
  cell number change: -67.7%
[2]
  AC50: 29.1 µM [falling, single point]
[1]
  AC50: 29.1 µM [falling, single point]

## COc1cc(NC(=O)c2cccc3c2C(=O)N(Cc2cccnc2)C3)cc(OC)c1OC
  cell number change: 7.22%
[1]
  AC50: 0.231 µM [rising, full curve, poor fit]

## COC(=O)c1ccc(Oc2c(C(F)(F)F)oc3c(CN4CCN(C)CC4)c(O)ccc3c2=O)cc1
  cell number change: -12.4%
[2]
  AC50: 0.461 µM [falling, partial curve, poor fit]
[1]
  AC50: 0.259 µM [falling, full curve, poor fit]

## CCCNc1c(NS(=O)(=O)c2ccc(C)cc2C)c(=O)oc2ccccc12
  cell number change: -19.5%
[2]
  AC50: 2.59 µM [falling, single point]
[1]
  AC50: 18.4 µM [rising, single point]

## Cc1cc(C)c2c(N)c(C(=O)NCC3CCCCC3)sc2n1
  cell number change: 34.1%
[2]
  AC50: 0.058 µM [rising, full curve]
[1]
  AC50: 0.651 µM [rising, partial curve]

## COc1ccc(NC(=O)CC2SC(=NCC3CCCO3)NC2=O)cc1 (configuration not stated)
  cell number change: 5.19%
[1]
  AC50: 16.4 µM [rising, partial curve, poor fit]

## O=C(Nc1ccccc1N1CCCC1)c1ccc([N+](=O)[O-])o1
  cell number change: -41.6%
[2]
  AC50: 7.31 µM [falling, full curve]
[1]
  AC50: 3.26 µM [falling, partial curve]

## Cc1cc(C)c(NC(=O)Cn2nnc(C(=O)NCCc3ccccc3)c2N)c(C)c1
  cell number change: 20.9%

## COc1cc([C@@H]2Oc3cc(C4Oc5cc(O)cc(O)c5C(=O)[C@H]4O)ccc3O[C@H]2CO)ccc1O (some centres not stated)
  cell number change: 6.7%

## CCN(CC)S(=O)(=O)c1cccc(C(=O)N/N=C(\C)c2ccc(O)cc2O)c1
  cell number change: -32%
[2]
  AC50: 29.1 µM [falling, single point]
[1]
  AC50: 29.1 µM [falling, single point]

## O=C(/C=C/c1cccs1)c1cc(Cl)ccc1OC(=O)N1CCOCC1
[1]
  AC50: 29.1 µM [falling, partial curve]

## O=C(N/N=C/c1ccc2c(c1)OCO2)c1ccc2c(c1)OCCO2
  cell number change: 39.1%
[2]
  AC50: 0.13 µM [rising, full curve, poor fit]
[1]
  AC50: 0.00517 µM [rising, full curve, poor fit]

## CC(=O)C(=Nc1ccc(Cl)cc1Cl)NNc1cccc(Cl)c1
  cell number change: -26%
[2]
  AC50: 3.66 µM [rising, single point]
[1]
  AC50: 6.51 µM [rising, single point]

## Cn1c(C2CCCN2C(=O)OC(C)(C)C)n[nH]c1=S (configuration not stated)
  cell number change: 8.97%
[1]
  AC50: 0.146 µM [rising, single point]

## Cc1cccc(C(=O)N2CCC(Cc3ccccc3)CC2)c1[N+](=O)[O-]
  cell number change: 75.7%
[2]
  AC50: 29.1 µM [rising, single point]

## Cc1cccc(Nc2ncnc3ccc(Br)cc23)c1
  cell number change: -7.17%
[1]
  AC50: 0.259 µM [rising, partial curve]

## CCOc1cc(N2CCOCC2)c(OCC)cc1NC(=O)c1cccc(N(C)C)c1
  cell number change: 37.4%
[2]
  AC50: 18.4 µM [rising, single point]
[1]
  AC50: 8.2 µM [rising, partial curve, poor fit]

## CC(C)(C)C(=O)Nc1ccccc1N1CCN(C(=O)c2ccc(Cl)cc2)CC1
  cell number change: 178%
[2]
  AC50: 18.4 µM [rising, partial curve]
[1]
  AC50: 14.6 µM [rising, partial curve]

## Cc1ccc(NC(=O)c2cnn(-c3ccccc3)c2NC(=O)c2ccco2)cc1C
  cell number change: -1.05%
[1]
  AC50: 0.651 µM [falling, full curve]

## Cc1ccc(OCCN(C)C(=O)C2CCC(=O)N(CCCN3CCOCC3)C2)cc1 (configuration not stated)
  cell number change: -2.97%
[1]
  AC50: 29.1 µM [rising, single point]

## CC(C)(CO)CNC1CCCN(C2Cc3ccccc3C2)C1 (configuration not stated)
  cell number change: 0.246%

## COc1ccc(CCn2c(Br)nc3c2c(=O)[nH]c(=O)n3C)cc1
  cell number change: -8.23%

## Cc1cccc(OCC(=O)NNC(=O)CSc2ncc(C#N)c(N)n2)c1
  cell number change: 12.9%

## CC(c1ccco1)N(C(=O)Nc1ccccc1)C1CCCCC1 (configuration not stated)
  cell number change: -25%
[2]
  AC50: 0.0058 µM [falling, full curve, poor fit]
[1]
  AC50: 23.1 µM [falling, partial curve]

## CCn1nc(NS(=O)(=O)c2cccc3nonc23)c2cc3ccc(C)cc3nc21
  cell number change: 30.1%
[2]
  AC50: 2.59 µM [rising, partial curve]

## CCC(C)Sc1ccc([C@@H]2[C@@H]3C(=O)N(C)C(=O)[C@@H]3[C@]3(C(=O)OC)CCCCN23)cc1OC (some centres not stated)
  cell number change: -15.2%
[1]
  AC50: 8.2 µM [falling, partial curve]

## CC(NC(=O)CN(Cc1ccccc1)S(=O)(=O)c1ccccc1)c1cccnc1 (configuration not stated)
  cell number change: 2.53%
[1]
  AC50: 0.013 µM [rising, full curve, poor fit]

## O=C(Cn1cc(C(=S)N2CCOCC2)c2ccccc21)N1CCOCC1
  cell number change: -29.7%
[2]
  AC50: 1.64 µM [falling, full curve, poor fit]
[1]
  AC50: 6.51 µM [falling, partial curve, poor fit]

## Cc1ccc(-c2n[nH]c(=S)n2Cc2ccccc2)cc1
[2]
  AC50: 1.3 µM [rising, full curve, poor fit]

## CN(N)C(=S)Nc1ccc(Cl)cc1
  cell number change: 39.4%
[2]
  AC50: 0.00461 µM [rising, full curve, poor fit]

## Cc1c(Cl)cccc1NC(=O)NCc1ccc(C)n1C
  cell number change: 14.1%
[1]
  AC50: 0.184 µM [rising, full curve, poor fit]

## NNC(=O)c1csc(CS(=O)(=O)c2ccc(Cl)cc2)n1
[1]
  AC50: 29.1 µM [rising, single point]

## CCCCN(C(=O)C1=COCCO1)c1c(N)n(CCC)c(=O)[nH]c1=O
[1]
  AC50: 29.1 µM [rising, single point]

## COc1ccccc1OCc1ccc(C(=O)NCC(C)C)o1
  cell number change: 18.6%

## COCC(C)n1c(SCc2nc3ccccc3c(=O)[nH]2)nc2ccccc2c1=O (configuration not stated)
  cell number change: -6.15%

## COc1ccc(N(C(=O)CNC(=O)c2ccco2)C(C(=O)NC2CCCC2)c2ccc(C)o2)cc1 (configuration not stated)
  cell number change: 6.67%

## Cc1nn(Cc2ccccc2Cl)c(C)c1NC(=O)CCCn1nc([N+](=O)[O-])c(Cl)c1C
  cell number change: -0.151%

## CC(C)c1ccc(NC(=O)C2CC(=O)N(C3CCCC3)C2)cc1 (configuration not stated)
  cell number change: 0.84%

## O=C(CCNC(=O)c1ccccc1Cl)Nc1ccc(Br)c(C(F)(F)F)c1
  cell number change: 22.7%
[1]
  AC50: 10.3 µM [rising, partial curve]

## O=C(c1cccc(S(=O)(=O)N2CCCCC2)c1)N1CCOCC1
  cell number change: -8.02%

## CCOc1nc(NCc2ccco2)nc(Nc2ccccc2F)n1
  cell number change: -59.1%
[2]
  AC50: 20.6 µM [falling, partial curve, poor fit]
[1]
  AC50: 29.1 µM [falling, partial curve, poor fit]

## O=C(Nc1nc(N2C(=O)c3ccccc3C2=O)n(-c2ccccc2)n1)c1ccc(F)cc1
  cell number change: 5.94%
[1]
  AC50: 0.13 µM [falling, full curve, poor fit]

## COc1cc(OC)c(OC)cc1CN1CCc2ccccc2C1
  cell number change: -78.2%
[2]
  AC50: 20.6 µM [falling, partial curve]
[1]
  AC50: 29.1 µM [falling, single point]

## Cc1ccc(NC(=O)c2cccc(C(F)(F)F)c2)cc1NC(=O)c1[nH]cnc1C(N)=O
[1]
  AC50: 0.00461 µM [falling, full curve, poor fit]

## O=C(NC1CCCCC1)c1n[nH]c2c1CC(c1ccccc1)CC2 (configuration not stated)
  cell number change: -64.5%
[2]
  AC50: 18.4 µM [falling, partial curve]

## CNC(=S)Nc1ccc(Cc2ccncc2)cc1
  cell number change: 3.7%
[2]
  AC50: 6.51 µM [rising, single point]

## COc1ccc(C(=O)Nc2ccccc2C(=O)NC(C)C)cc1OC
[2]
  AC50: 6.51 µM [rising, partial curve]
[1]
  AC50: 1.16 µM [rising, full curve]

## CCOc1ccc(N(C)S(=O)(=O)c2cnc[nH]2)cc1
  cell number change: -9.89%
[1]
  AC50: 6.51 µM [rising, single point]

## CCOc1ccccc1-n1c(CNc2ccc(F)cc2)nnc1SCC(=O)NCc1ccco1
  cell number change: -32.6%
[2]
  AC50: 13 µM [falling, partial curve]

## COc1ccc(-n2c(-c3ccc(Cl)cc3)c[n+]3c2CCc2ccccc2-3)cc1
  cell number change: -71.2%
[2]
  AC50: 29.1 µM [falling, single point]
[1]
  AC50: 29.1 µM [falling, single point]

## O=C(NCc1ccccc1)C1=C[C@H](c2coc3ccccc3c2=O)C[C@H](OCc2ccc(CO)cc2)O1
  cell number change: -19.4%

## Cc1nonc1NC(=O)OCCN1CCOC1=O
  cell number change: 18.1%
[1]
  AC50: 29.1 µM [rising, single point]

## O=C1CN(C(=O)COC(=O)c2ccccc2NC(=O)c2ccco2)c2ccccc2N1
[1]
  AC50: 18.4 µM [rising, partial curve]

## CCOC(=O)[C@H]1[C@H]2COc3cc(OC)ccc3[C@@H]2N2C(=O)c3cc(F)c(F)cc3NC(=O)[C@@]12C
[1]
  AC50: 0.731 µM [falling, partial curve, poor fit]

## CCCCNC(=O)Cn1c(=O)c2c(ncn2CC)n(Cc2ccccc2)c1=O
  cell number change: -58.5%
[2]
  AC50: 0.517 µM [falling, full curve]
[1]
  AC50: 4.61 µM [falling, partial curve]
